These are yes or no findings as the source states them, for the method shown. In cells and extracts the contact can be indirect. A yes stands for co-enrichment or nearness to the bait. Other partners may have been found. Tags and fused reporters may be left off the sequences shown.
Biological target: T1, HA-tagged PMEPA1 (prostate transmembrane protein androgen induced 1), exogenous, in AGS cells (human) (UniProt Q969W9)
T1 sequence: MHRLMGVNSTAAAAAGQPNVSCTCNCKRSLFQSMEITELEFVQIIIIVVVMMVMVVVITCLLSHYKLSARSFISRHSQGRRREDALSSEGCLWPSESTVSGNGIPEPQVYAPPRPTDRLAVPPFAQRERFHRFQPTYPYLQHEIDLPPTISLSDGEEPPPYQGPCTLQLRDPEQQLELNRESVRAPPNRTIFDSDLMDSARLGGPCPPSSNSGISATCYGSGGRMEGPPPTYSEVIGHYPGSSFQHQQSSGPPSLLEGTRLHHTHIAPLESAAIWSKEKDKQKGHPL
Test: affinity purification with mass spectrometry; anti-HA immunoprecipitation from lysates of control and PMEPA1-overexpressing AGS cells; bands excised from the gel, trypsin digest, Orbitrap Exploris 480

By UniProt entry, the sequences of proteins in these tests, tags left out.
UniProt P31947: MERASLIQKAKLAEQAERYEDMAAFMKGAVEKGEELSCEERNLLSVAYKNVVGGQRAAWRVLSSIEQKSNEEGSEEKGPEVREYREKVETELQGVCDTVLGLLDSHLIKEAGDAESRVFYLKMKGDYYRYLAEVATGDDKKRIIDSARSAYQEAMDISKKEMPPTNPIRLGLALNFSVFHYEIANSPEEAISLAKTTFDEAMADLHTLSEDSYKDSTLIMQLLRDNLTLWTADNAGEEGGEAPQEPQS

binding: binds
Substance: 14-3-3σ, endogenous in gastric cancer cells (MKN-7, AGS) (from UniProt P31947 1-248)
